# Experimental data: PubChem BioAssay AID686943 (Drosophila RNAi Screening Center, 2013)
# Purpose: 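Fly genes whose loss alters ERK activation after insulin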 (primary screen)
# Cell system: Drosophila S2R+ haemocyte-like cells expressing YFP-tagged ERK (Rolled)
# Reagent: long dsRNA against Drosophila genes
# Conditions: insulin stimulation versus unstimulated cells; dose and duration not given
# Measured: 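Antibody staining for doubly phosphorylated ERK divided by ERK-YFP signal, as plate z-scores, in insulin-treated and untreated cells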
# Reading the numbers: replicate 1, z-score of dpERK with insulin: higher = more active ERK per ERK-YFP after insulin
# The screen tested about 23,000 reagents; below is an unselected part of those that have a named target and a result. 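Extra replicates exist only for a retested subset of genes; insulin dose and duration not given; both raised and lowered dpERK matter.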 Not all columns of the deposit are shown. No sequences are given here. Not given: the amount of reagent, the time to read-out.
target,DRSC id,"replicate 1, z-score of dpERK with insulin"
Saf6 (GeneID 33255),DRSC00633,0.96
CG9993 (GeneID 37358),DRSC04599,0.59
MED14 (GeneID 38073),DRSC08235,3.29
CG34256 (GeneID 5740297),DRSC09582,0.09
Catsup (GeneID 48805),DRSC03288,-0.16
CG5568 (GeneID 38658),DRSC10518,0.51
CG5568 (GeneID 38658),DRSC22816,-0.06
PIG-T (GeneID 31772),DRSC17774,-0.85
CG4815 (GeneID 43360),DRSC15653,-0.32
aos (GeneID 39833),DRSC11323,0.04
rgr (GeneID 35843),DRSC06487,0.64
rgr (GeneID 35843),DRSC07229,0.33
spz5 (GeneID 38350),DRSC08645,1.27
PolQ (GeneID 41571),DRSC17006,0.15
CG30384 (GeneID 246584),DRSC06032,-0.48
WDR79 (GeneID 33865),DRSC03159,0.36
CG8067 (GeneID 36552),DRSC07065,0.31
CG7102 (GeneID 34079),DRSC02647,0.75
CG7102 (GeneID 34079),DRSC03007,-0.48
CG3594 (GeneID 37964),DRSC04393,1.03
CG3594 (GeneID 37964),DRSC21959,0.87
dar1 (GeneID 38436),DRSC08049,0.42
dar1 (GeneID 38436),DRSC08233,-0.33

Quoted from above (2 entries):
target,DRSC id,"replicate 1, z-score of dpERK with insulin"
CG5568 (GeneID 38658),DRSC22816,-0.06
PIG-T (GeneID 31772),DRSC17774,-0.85
